# Laboratory results from PubChem BioAssay AID445 (National Center for Advancing Translational Sciences (NCATS), 2006).
# Some of the results follow. These are further read-outs of the screen, such as a control signal, another cell line or another target. No call is given for them. Most of these compounds were active or inconclusive in the main read-out, so they are no random draw. The note in brackets gives the kind of curve behind each potency; many fits are weak.
# Assay: IkB Signaling
# Details: ABC-DLBCL IkBa-CBG/CBR dual luciferase ratio (green luciferase fused to IkBa over red control in OCI-Ly3 lymphoma cells), 4 h
# Method in brief: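 Curves were fitted separately to fusion (green), unfused (red) and ratio luminescence, then classed by r2, magnitude and activity. Cells: OCI-Ly3, 4 h compound plus doxycycline at 37C; 10 uM MG-132 defined full response.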
# [1] = measured here: IkB-luc green channel
# [2] = measured here: control luc red channel
# [3] = measured here: control luc red channel unless noted
compound,measurement,setting,value
Cc1ccnc(Nc2nc(-c3c(C)nc4sccn34)cs2)c1,AC50,[1],"7.94 µM [falling, full curve]"
same,AC50,[2],"7.94 µM [falling, full curve]"
CCOc1ccc(C(=O)Nc2c(C(=O)N3CCN(c4ccccc4F)CC3)oc3ccccc23)cc1,AC50,[3],"25.1 µM [falling, single point]"
COc1ccc(-c2cc(C(=O)NC(C(=O)O)C(C)C)c(C)o2)cc1OC (stereo not drawn),AC50,[1],"0.794 µM [falling, full curve]"
same,AC50,[2],"12.6 µM [falling, partial curve]"
CCc1nonc1NC(=O)c1oc2ccc(C)cc2c1C,AC50,[3],"0.02 µM [rising, full curve, poor fit]"
CCCn1c(SCC(=O)NCc2ccco2)nnc1C(C)C,AC50,[3],"25.1 µM [rising, partial curve, poor fit] [measured here: IkB-luc green channel]"
CCOc1ccc(N2C(=O)c3n[nH]c(-c4cccs4)c3C2c2cccc(F)c2)cc1 (stereo not drawn),AC50,[3],"31.6 µM [falling, single point]"
CCOc1ccccc1CNC(=O)c1ccc2c(c1)nc1n2CCCCC1,AC50,[3],"0.0251 µM [falling, full curve, poor fit]"
Cc1c(Nc2nc3ccccc3n3c(C)nnc23)cccc1C(=O)O,AC50,[3],"2 µM [falling, full curve]"
COc1ccc(Br)cc1CNC(=O)CCSCc1ccc(C)cc1,AC50,[3],"20 µM [falling, partial curve]"
O=C(CS(=O)(=O)c1cccc2nsnc12)N1CCN(c2cccc(C(F)(F)F)c2)CC1,AC50,[3],"39.8 µM [falling, single point]"
O=C(Cn1cc(S(=O)(=O)c2ccccc2)c(=O)c2cc3c(cc21)OCO3)Nc1ccc(Cl)cc1,AC50,[3],"12.6 µM [falling, partial curve]"
CCNc1cc(N2CCN(C3CCCCC3)CC2)c2noc3c2c1C(=O)c1ccccc1-3,AC50,[3],"39.8 µM [falling, single point]"
O=C(CSc1nnc(-c2c[nH]c3ccccc23)o1)N1c2ccccc2CCc2ccccc21,AC50,[3],"3.98 µM [falling, full curve]"
COC(=O)c1[nH]c2ccc(Br)cc2c1NC(=O)CN1CCN(C2CCCCC2)CC1,AC50,[3],"39.8 µM [falling, single point]"
CCOC(=O)CSc1nc2ccccc2c(=O)n1-c1cccc(C)c1,AC50,[3],"3.16 µM [rising, partial curve]"
CC(=O)C1=C(C)NC(=O)NC1c1ccccc1 (stereo not drawn),AC50,[3],"15.8 µM [falling, partial curve]"
O=C(O)Cc1sc(Nc2ccccc2)nc1-c1ccccc1,AC50,[3],"39.8 µM [falling, single point]"
CN(CCOc1ccc(C[C@H](Nc2ccccc2C(=O)c2ccccc2)C(=O)O)cc1)c1ccccn1,AC50,[3],"39.8 µM [falling, partial curve]"
CCN(CC)c1ccc2c(c1)oc(=O)c1c(Cl)cc(=O)oc12,AC50,[3],"3.16 µM [falling, full curve]"
COc1ccc(S(=O)(=O)NCCS(=O)(=O)N2CCN(c3ccccc3)CC2)cc1C,AC50,[3],"31.6 µM [falling, single point]"
COc1ccc(N2CCN(Cc3cccn3-c3nnc(N4CCN(C5CCCCC5)CC4)s3)CC2)cc1,AC50,[3],"12.6 µM [falling, partial curve]"
Cc1nc(SC(C)C(=O)Nc2ccccc2Cl)cc(-c2ccccc2)n1 (stereo not drawn),AC50,[3],"10 µM [falling, partial curve]"
CCOc1ccc(-n2nc(CO)c(C(=O)NCc3cccs3)n2)cc1,AC50,[3],"39.8 µM [falling, single point]"
CC(Oc1ccc(Br)cc1)C(=O)Nc1ncn[nH]1 (stereo not drawn),AC50,[3],"25.1 µM [falling, partial curve, poor fit]"
CCCCNc1nc2c(c(=O)n(C)c(=O)n2C)n1CC(O)COc1ccccc1C (stereo not drawn),AC50,[3],"25.1 µM [falling, single point]"
CCOC(=O)c1c(NC(=O)c2ccc(Br)cc2)sc2c1CCCC2,AC50,[3],"12.6 µM [falling, single point]"
COc1cccc(N2CCN(Cc3nc(N)nc(N4CCCc5ccccc54)n3)CC2)c1,AC50,[3],"10 µM [falling, partial curve]"
C=C1C(=O)O[C@@H]2[C@H]3O[C@]3(C)CCC=C(C)CC[C@@H]12,AC50,[3],"6.31 µM [falling, full curve]"
COc1ccc(C(=O)Nc2nnc(S(=O)(=O)N3CCCc4ccccc43)s2)cc1,AC50,[3],"12.6 µM [falling, partial curve]"
Cc1ccc2nc(-c3cccc(NC(=O)c4ccc(Br)o4)c3)oc2c1,AC50,[3],"15.8 µM [falling, partial curve]"
Cc1ccc(NC(=O)CSc2ccc3nnc(CCNS(=O)(=O)c4ccccc4)n3n2)cc1Cl,AC50,[3],"25.1 µM [falling, single point]"

# A second format for part of the listing above:
compound	measurement	setting	value
CCCn1c(SCC(=O)NCc2ccco2)nnc1C(C)C	AC50	[3]	25.1 µM [rising, partial curve, poor fit] [measured here: IkB-luc green channel]
CN(CCOc1ccc(C[C@H](Nc2ccccc2C(=O)c2ccccc2)C(=O)O)cc1)c1ccccn1	AC50	[3]	39.8 µM [falling, partial curve]
